From publication PMC8315051
Results are given in words; binding and its absence hold for the method and conditions named. Binding seen in cells or lysates may run through a third protein. Some results given as binding are weak or reduced against the parent protein; the word gives no strength. Each block holds one substance with its values, some of them ahead of it.

The chains behind the UniProt entries cited, without tags or fusion partners.
UniProt O94953: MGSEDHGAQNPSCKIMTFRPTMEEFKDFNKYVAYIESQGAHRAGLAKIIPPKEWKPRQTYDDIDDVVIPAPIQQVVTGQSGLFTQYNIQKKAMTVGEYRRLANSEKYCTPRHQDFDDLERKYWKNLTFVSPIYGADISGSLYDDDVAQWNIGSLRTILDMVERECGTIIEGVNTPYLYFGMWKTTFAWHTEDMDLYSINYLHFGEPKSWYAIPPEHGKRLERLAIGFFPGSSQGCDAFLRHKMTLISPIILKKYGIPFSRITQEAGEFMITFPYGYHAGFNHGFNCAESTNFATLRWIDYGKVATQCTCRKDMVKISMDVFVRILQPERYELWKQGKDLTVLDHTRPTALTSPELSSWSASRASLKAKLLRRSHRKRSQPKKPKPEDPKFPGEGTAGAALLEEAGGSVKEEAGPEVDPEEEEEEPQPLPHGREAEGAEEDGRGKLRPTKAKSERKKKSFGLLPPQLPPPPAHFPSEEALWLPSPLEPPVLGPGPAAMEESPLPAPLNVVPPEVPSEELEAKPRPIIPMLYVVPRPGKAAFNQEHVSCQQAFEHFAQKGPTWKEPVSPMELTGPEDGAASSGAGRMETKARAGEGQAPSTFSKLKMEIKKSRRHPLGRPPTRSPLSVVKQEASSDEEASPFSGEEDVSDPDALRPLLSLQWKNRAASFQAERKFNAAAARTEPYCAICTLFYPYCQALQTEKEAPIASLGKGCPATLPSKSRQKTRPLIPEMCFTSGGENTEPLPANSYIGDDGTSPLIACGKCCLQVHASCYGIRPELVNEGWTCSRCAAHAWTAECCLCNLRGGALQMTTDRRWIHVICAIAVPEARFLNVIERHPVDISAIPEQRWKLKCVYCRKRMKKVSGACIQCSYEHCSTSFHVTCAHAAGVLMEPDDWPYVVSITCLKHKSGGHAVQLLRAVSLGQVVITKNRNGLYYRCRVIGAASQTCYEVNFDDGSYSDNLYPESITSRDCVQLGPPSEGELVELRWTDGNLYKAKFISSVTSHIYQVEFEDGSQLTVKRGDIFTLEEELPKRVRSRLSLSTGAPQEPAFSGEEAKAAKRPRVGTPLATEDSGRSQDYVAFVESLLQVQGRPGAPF
UniProt P01106: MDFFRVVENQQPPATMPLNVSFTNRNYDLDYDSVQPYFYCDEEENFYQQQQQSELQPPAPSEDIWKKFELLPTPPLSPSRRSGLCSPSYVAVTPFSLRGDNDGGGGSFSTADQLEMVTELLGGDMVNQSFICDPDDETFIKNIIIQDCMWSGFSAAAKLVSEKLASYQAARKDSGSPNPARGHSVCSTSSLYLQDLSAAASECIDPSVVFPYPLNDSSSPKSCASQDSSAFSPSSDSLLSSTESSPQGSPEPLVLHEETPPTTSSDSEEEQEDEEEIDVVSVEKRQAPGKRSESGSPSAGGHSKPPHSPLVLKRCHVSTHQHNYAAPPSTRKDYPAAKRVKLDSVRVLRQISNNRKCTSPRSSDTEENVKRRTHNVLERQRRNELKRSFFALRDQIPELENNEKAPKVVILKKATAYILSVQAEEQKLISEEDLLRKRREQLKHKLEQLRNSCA

Legend:
[1] = target: HA-tagged full-length KDM4B (KDM4B-FL) (UniProt O94953); test: co-IP; lysates of HEK293 cells (text: 293T) co-transfected with HA-KDM4B and Flag-c-Myc or a truncated Flag-c-Myc; IP with anti-HA antibody on protein A/G magnetic beads, 4 °C overnight, lysis buffer 50 mM Tris-HCl pH 7.4, 150 mM NaCl, 0.5% NP40; immunoblot with anti-Flag
[2] = target: Flag-tagged full-length c-Myc (c-Myc-FL) (human) (UniProt P01106); test: co-IP; lysates of HEK293 cells (text: 293T) co-transfected with Flag-c-Myc and HA-KDM4B or a truncated HA-KDM4B; IP with anti-Flag antibody on protein A/G magnetic beads, 4 °C overnight, lysis buffer 50 mM Tris-HCl pH 7.4, 150 mM NaCl, 0.5% NP40; immunoblot with anti-HA
[3] = target: c-Myc, endogenous in C4-2B cells (human (endogenous in C4-2B)) (UniProt P01106); test: co-IP; endogenous proteins in C4-2B cell lysates; IP with anti-KDM4B or anti-c-Myc antibody, rabbit IgG as negative control; immunoblot

binding [1]: binds
Substance: Flag-tagged full-length c-Myc (c-Myc-FL) (from UniProt P01106 1-454)

binding [2]: binds
Substance: HA-tagged full-length KDM4B (KDM4B-FL) (from UniProt O94953 1-1096)

binding [3]: binds
Substance: KDM4B, endogenous in C4-2B cells (from UniProt O94953 1-1096)
